Test results from article doi:10.1101/682807.
These are yes or no findings as the source states them, for the method shown.

Target: HR4^Col-0 (overexpressed in N. benthamiana) (A. thaliana) (UniProt Q9SCS6)
Test: SDS-resistant dimers on SDS-PAGE immunoblot

binding: no binding
B1: HR4^Col-0 (overexpressed in N. benthamiana) (protein, UniProt Q9SCS6 1-200)
chain: MPIAELAVIKTVGGPLIAAALGVGAQVIYDGFRKGKDTSIINRLGRTMESISPVRDRIGKLSNVEGKPFREVHESLTRLLEDAKSIIEKYWKLRWSRHVCRKYRYIKKLESIELELVRVAREIQVHQWTDIKEMKAIQVHQWTDIKEMKAIQVDQWTDIKEMKAIQVDQWIDIKEMKAIQVDQWTDIKEMKAQISEKHNK
